Experimental data published in PubChem BioAssay AID248 (DTP/NCI, 2004).
The list is a part of this screen's results and no random one: it gathers tests that were run many times, whatever their T/C, doses with no T/C, and many T/C values between a quarter and a half above the control. Other doses and runs of a compound stand elsewhere. T/C gives the treated animals as a percentage of the vehicle group. Some entries give survivors of the animals treated and no T/C: the source files T/C as zero there, which appears to mark a toxic dose or a test without result, not a measured value. Some survivor counts are full or nearly so, which does not show that the dose was tolerated: the source hardly ever lists a survival T/C far under the control, and the zero likely stands for such cases as well. Counts of survivors are from the toxicity check (mostly the fifth day) where no day follows; animals may have died later. Schedule codes are those of the source, taken here to give the interval after Q, in days (D) or hours (H), and the number of doses after X. Some schedule codes hold Z or #, which are not explained here. Some structures stand for samples that the source files as different forms (salt, stereo form or complex); doses refer to the form tested. For survival time, the PubChem record calls one and a half times the control and up active, and a quarter to a half above the control has no call in these data; cut-offs in other NCI protocols can differ. Some doses were run more than once; their values stand side by side, smallest first.

Test system: L1210 leukemia ip in BDF1 mice, survival T/C
Test: NCI In Vivo Anticancer Drug Screen. Data for tumor model L1210 Leukemia (intraperitoneal) in B6D2F1 (BDF1) mice
Conditions: T/C endpoint: mean survival time, higher T/C = longer survival
[1] = dose: 100.0 mg/kg/injection, schedule: Q04DX003 (ip), vehicle: Klucel (hydroxypropylcellulose) (HPC)
[2] = dose: 200.0 mg/kg/injection, schedule: Q04DX003 (ip), vehicle: Klucel (hydroxypropylcellulose) (HPC)
[3] = dose: 400.0 mg/kg/injection, schedule: Q04DX003 (ip), vehicle: Klucel (hydroxypropylcellulose) (HPC)
[4] = dose: 100.0 mg/kg/injection, schedule: Q01DX005 (ip), vehicle: saline
[5] = dose: 200.0 mg/kg/injection, schedule: Q01DX005 (ip), vehicle: saline
[6] = dose: 200.0 mg/kg/injection, schedule: Q01DX009 (ip), vehicle: saline with Tween-80
[7] = dose: 200.0 mg/kg/injection, schedule: Q01DX009 (ip), vehicle: Klucel (hydroxypropylcellulose) (HPC)
[8] = dose: 400.0 mg/kg/injection, schedule: Q01DX009 (ip), vehicle: Klucel (hydroxypropylcellulose) (HPC)
[9] = dose: 100.0 mg/kg/injection, schedule: Q01DX009 (ip), vehicle: saline
[10] = dose: 200.0 mg/kg/injection, schedule: Q01DX009 (ip), vehicle: saline
[11] = dose: 400.0 mg/kg/injection, schedule: Q01DX001 (ip), vehicle: carboxymethylcellulose (CMC)
[12] = dose: 200.0 mg/kg/injection, schedule: Q04DX003 (ip), vehicle: saline with Tween-80
[13] = dose: 400.0 mg/kg/injection, schedule: Q04DX003 (ip), vehicle: saline with Tween-80
[14] = dose: 100.0 mg/kg/injection, schedule: Q01DX009 (ip), vehicle: Klucel (hydroxypropylcellulose) (HPC)
[15] = dose: 200.0 mg/kg/injection, schedule: Q04DX003 (ip), vehicle: saline

For `Cc1cc(N(CCOS(C)(=O)=O)CCOS(C)(=O)=O)ccc1C=Nc1cccc(C(=O)O)c1`, the survivor count (dose: 80.0 mg/kg/injection, schedule: Q04DX003 (ip), vehicle: Klucel (hydroxypropylcellulose) (HPC)) was 6 of 6, the survivor count [1] was 6 of 6 and the survivor count [2] was 3 of 6. For the same compound, the survivor count [3] was 0 of 6.

With `CCC(=O)NC1=C(N2CC2C)C(=O)C(NC(=O)CC)=C(N2CC2C)C1=O` (stereo not given) the survivor count (dose: 55.0 mg/kg/injection, schedule: Q01DX009 (ip), vehicle: Klucel (hydroxypropylcellulose) (HPC)) was 6 of 6.

In the case of `NC(=O)c1cn(C2OC(CO)C(O)C2O)c2ncn3ccnc3c12` (stereo not given), the survivor count (dose: 25.0 mg/kg/injection, schedule: Q01DX005 (ip), vehicle: saline) is reported as 3 of 4, the survivor count (dose: 50.0 mg/kg/injection, schedule: Q01DX005 (ip), vehicle: saline) is reported as 3 of 4 and the survivor count [4] is reported as 0 of 6. For the same compound, the survivor count [5] was 0 of 6.

For `C=CCN(CC=C)c1ncnc2[nH]ncc12`, the survivor count (dose: 250.0 mg/kg/injection, schedule: Q01DX015 (ip), vehicle: carboxymethylcellulose (CMC)) was 0 of 6 and the survivor count (dose: 500.0 mg/kg/injection, schedule: Q01DX015 (ip), vehicle: carboxymethylcellulose (CMC)) was 0 of 6.

`C(=N\Nc1nn[nH]n1)/c1ccccc1` was tested, and the survivor count [6] was 3 of 6 and the survivor count (dose: 400.0 mg/kg/injection, schedule: Q01DX009 (ip), vehicle: saline with Tween-80) was 2 of 6.

`O=S(=O)(C(Cl)Cl)C(Cl)(Cl)S(=O)(=O)C(Cl)Cl` was tested, and the survivor count [7] was 2 of 6 and the survivor count [8] was 0 of 6.

With `CCN(Cc1ccccc1)C(=O)NC(C)(C)C` the survivor count [8] was 3 of 6.

`C=C1CC[N+]2(C)CCCC12` (stereo not given) was tested, and the survivor count [9] was 0 of 3 and the survivor count [10] was 0 of 3.

In the case of `CCN(CC)CCCC(C)Nc1c2ccc(Cl)cc2nc2ccc(OC)cc12` (stereo not given), the survivor count (dose: 100.0 mg/kg/injection, schedule: Q01DX Z (ip), vehicle: water) is reported as 4 of 8, the survivor count (dose: 200.0 mg/kg/injection, schedule: Q01DX015 (ip), vehicle: carboxymethylcellulose (CMC)) is reported as 5 of 6 and the survivor count [11] is reported as 0 of 4. For the same compound, the survivor count (dose: 400.0 mg/kg/injection, schedule: Q01DX015 (ip), vehicle: carboxymethylcellulose (CMC)) was 0 of 6.

With `c1cnc(OCCN2CC2)cn1` the survivor count (dose: 100.0 mg/kg/injection, schedule: Q01DX001 (ip), vehicle: carboxymethylcellulose (CMC)) was 2 of 6, the survivor count (dose: 100.0 mg/kg/injection, schedule: Q01DX001 (ip), vehicle: saline) was 2 of 6 and the survivor count (dose: 200.0 mg/kg/injection, schedule: Q01DX001 (ip), vehicle: carboxymethylcellulose (CMC)) was 0 of 6. The survivor count [11] was 0 of 6.

In the case of `O=C(Nc1ccccc1C(F)(F)F)c1cccc(C(=O)Nc2ccccc2C(F)(F)F)c1`, the survivor count [6] is reported as 6 of 6, the survivor count [12] is reported as 6 of 6 and the survivor count [13] is reported as 6 of 6.

In the case of `CCN=C(N)c1ccc(NC(=O)Nc2ccc(NC(=O)Nc3ccc(C(N)=NCC)cc3)cc2)cc1`, the T/C (dose: 2.5 mg/kg/injection, schedule: Q01DX Z (ip), vehicle: water) is reported as 130 % of control, the T/C (dose: 5.0 mg/kg/injection, schedule: Q01DX Z (ip), vehicle: water) is reported as 148 % of control and the T/C (dose: 11.0 mg/kg/injection, schedule: Q01DX Z (ip), vehicle: water) is reported as 145 % of control. For the same compound, the survivor count (dose: 22.0 mg/kg/injection, schedule: Q01DX Z (ip), vehicle: water) was 6 of 6, the survivor count (dose: 45.0 mg/kg/injection, schedule: Q01DX Z (ip), vehicle: water) was 0 of 6 and the survivor count (dose: 91.0 mg/kg/injection, schedule: Q01DX Z (ip), vehicle: water) was 0 of 6. For the same compound, the survivor count (dose: 182.0 mg/kg/injection, schedule: Q01DX Z (ip), vehicle: water) was 0 of 6 and the survivor count (dose: 364.0 mg/kg/injection, schedule: Q01DX Z (ip), vehicle: water) was 0 of 6.

For `O=[N+]([O-])c1cc(S(=O)(=O)Oc2ccccc2)ccc1Cl`, the survivor count [14] was 1 of 6, the survivor count [7] was 0 of 6 and the survivor count [8] was 0 of 6.

In the case of `Cc1cc(N(CCOS(C)(=O)=O)CCOS(C)(=O)=O)ccc1C=Nc1ccc(-c2nc(Cc3ccccc3)sc2C)cc1`, the T/C (dose: 25.0 mg/kg/injection, schedule: Q01DX009 (ip), vehicle: Klucel (hydroxypropylcellulose) (HPC)) is reported as 131 % of control, the T/C (dose: 50.0 mg/kg/injection, schedule: Q01DX009 (ip), vehicle: Klucel (hydroxypropylcellulose) (HPC)) is reported as 141 % of control and the T/C [14] is reported as 136 % of control. For the same compound, the T/C [1] was 125 and 143 % of control, the survivor count (dose: 150.0 mg/kg/injection, schedule: Q04DX003 (ip), vehicle: Klucel (hydroxypropylcellulose) (HPC)) was 6 of 6 and the survivor count [7] was 6 of 6. The survivor count [2] was 6 of 6, the survivor count [8] was 6 of 6 and the survivor count [3] was 4 of 6.

In the case of `N#CC1(C#N)C2C=CC(C3C(Cl)C=CC32)C1(C#N)C#N` (stereo not given), the survivor count (dose: 50.0 mg/kg/injection, schedule: Q01DX009 (ip), vehicle: saline with Tween-80) is reported as 3 of 6, the survivor count (dose: 100.0 mg/kg/injection, schedule: Q04DX003 (ip), vehicle: saline with Tween-80) is reported as 6 of 6 and the survivor count [12] is reported as 0 of 6. For the same compound, the survivor count [13] was 0 of 6.

In the case of `CN1CCN(Cc2cc(Cl)c3cccnc3c2O)CC1`, the survivor count (dose: 300.0 mg/kg/injection, schedule: Q01DX001 (ip), vehicle: saline) is reported as 1 of 6.

For `COc1cccc(NN)c1`, the survivor count [9] was 6 of 6, the survivor count [10] was 0 of 6 and the survivor count [15] was 5 of 6. For the same compound, the survivor count (dose: 400.0 mg/kg/injection, schedule: Q04DX003 (ip), vehicle: saline) was 0 of 6.

With `OCC1OC(n2cncn2)C(O)C1O` (stereo not given) the T/C [4] was 134 % of control and the T/C [5] was 146 % of control.

With `CC[N+](C)(CC)CCOc1cc(C)ccc1C(C)C` the survivor count [15] was 0 of 6.

`Nc1nc(=S)[nH]c(N)c1N` was tested, and the survivor count (dose: 250.0 mg/kg/injection, schedule: Q01DX Z (ip), vehicle: methylcellulose (MC)) was 2 of 6 and the survivor count (dose: 500.0 mg/kg/injection, schedule: Q01DX Z (ip), vehicle: methylcellulose (MC)) was 3 of 6.

`CC(=O)OC1C(OCc2ccccc2)OC(COCc2ccccc2)C(OC2OC(COCc3ccccc3)C(OCc3ccccc3)C(OCc3ccccc3)C2OCc2ccccc2)C1OCc1ccccc1` (stereo not given) was tested, and the survivor count (dose: 25.0 mg/kg/injection, schedule: Q04DX003 (ip), vehicle: Klucel (hydroxypropylcellulose) (HPC)) was 6 of 6, the survivor count (dose: 42.5 mg/kg/injection, schedule: Q01DX009 (ip), vehicle: Klucel (hydroxypropylcellulose) (HPC)) was 6 of 6 and the survivor count (dose: 100.0 mg/kg/injection, schedule: Q01DX001 (ip), vehicle: other) was 6 of 6. The survivor count (dose: 170.0 mg/kg/injection, schedule: Q01DX009 (ip), vehicle: Klucel (hydroxypropylcellulose) (HPC)) was 6 of 6, the survivor count (dose: 200.0 mg/kg/injection, schedule: Q01DX001 (ip), vehicle: other) was 6 of 6 and the survivor count (dose: 400.0 mg/kg/injection, schedule: Q01DX001 (ip), vehicle: other) was 6 of 6.

With `Nc1c(Cl)c(Cl)c(Cl)c(Cl)c1C(=O)O` the survivor count (dose: 300.0 mg/kg/injection, schedule: Q04DX003 (ip), vehicle: saline) was 1 of 6.
